Source: the supplement of paper PMC10849652
Some of the results follow.

Protein sequences, listed by entry. Tags and fused reporters are not part of them. Lines headed by an entry give the natural chain unless they say otherwise; changes in a name come on top.
UniProt O14787: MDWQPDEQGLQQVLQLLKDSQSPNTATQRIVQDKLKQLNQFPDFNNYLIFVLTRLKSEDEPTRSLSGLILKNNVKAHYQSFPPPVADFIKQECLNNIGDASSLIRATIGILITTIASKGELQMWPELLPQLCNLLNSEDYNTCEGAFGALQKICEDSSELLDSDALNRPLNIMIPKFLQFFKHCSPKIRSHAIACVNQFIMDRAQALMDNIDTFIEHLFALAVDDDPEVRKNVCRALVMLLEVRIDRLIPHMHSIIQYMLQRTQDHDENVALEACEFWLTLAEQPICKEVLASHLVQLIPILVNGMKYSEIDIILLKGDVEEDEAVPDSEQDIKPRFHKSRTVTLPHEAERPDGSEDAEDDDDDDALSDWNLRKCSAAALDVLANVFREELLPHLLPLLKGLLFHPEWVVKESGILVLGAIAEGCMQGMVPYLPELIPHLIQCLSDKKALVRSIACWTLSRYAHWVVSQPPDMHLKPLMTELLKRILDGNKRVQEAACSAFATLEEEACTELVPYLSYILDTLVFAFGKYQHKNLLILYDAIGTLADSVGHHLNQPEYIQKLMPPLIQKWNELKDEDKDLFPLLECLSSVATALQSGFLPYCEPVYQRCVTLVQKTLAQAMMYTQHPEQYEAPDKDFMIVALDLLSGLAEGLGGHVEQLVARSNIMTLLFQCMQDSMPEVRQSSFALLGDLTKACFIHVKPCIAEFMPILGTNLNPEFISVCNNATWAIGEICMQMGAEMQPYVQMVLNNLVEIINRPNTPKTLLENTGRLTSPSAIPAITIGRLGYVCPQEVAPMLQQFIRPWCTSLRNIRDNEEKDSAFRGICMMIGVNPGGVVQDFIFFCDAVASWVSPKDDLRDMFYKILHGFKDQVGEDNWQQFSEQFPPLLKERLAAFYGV
UniProt Q12888: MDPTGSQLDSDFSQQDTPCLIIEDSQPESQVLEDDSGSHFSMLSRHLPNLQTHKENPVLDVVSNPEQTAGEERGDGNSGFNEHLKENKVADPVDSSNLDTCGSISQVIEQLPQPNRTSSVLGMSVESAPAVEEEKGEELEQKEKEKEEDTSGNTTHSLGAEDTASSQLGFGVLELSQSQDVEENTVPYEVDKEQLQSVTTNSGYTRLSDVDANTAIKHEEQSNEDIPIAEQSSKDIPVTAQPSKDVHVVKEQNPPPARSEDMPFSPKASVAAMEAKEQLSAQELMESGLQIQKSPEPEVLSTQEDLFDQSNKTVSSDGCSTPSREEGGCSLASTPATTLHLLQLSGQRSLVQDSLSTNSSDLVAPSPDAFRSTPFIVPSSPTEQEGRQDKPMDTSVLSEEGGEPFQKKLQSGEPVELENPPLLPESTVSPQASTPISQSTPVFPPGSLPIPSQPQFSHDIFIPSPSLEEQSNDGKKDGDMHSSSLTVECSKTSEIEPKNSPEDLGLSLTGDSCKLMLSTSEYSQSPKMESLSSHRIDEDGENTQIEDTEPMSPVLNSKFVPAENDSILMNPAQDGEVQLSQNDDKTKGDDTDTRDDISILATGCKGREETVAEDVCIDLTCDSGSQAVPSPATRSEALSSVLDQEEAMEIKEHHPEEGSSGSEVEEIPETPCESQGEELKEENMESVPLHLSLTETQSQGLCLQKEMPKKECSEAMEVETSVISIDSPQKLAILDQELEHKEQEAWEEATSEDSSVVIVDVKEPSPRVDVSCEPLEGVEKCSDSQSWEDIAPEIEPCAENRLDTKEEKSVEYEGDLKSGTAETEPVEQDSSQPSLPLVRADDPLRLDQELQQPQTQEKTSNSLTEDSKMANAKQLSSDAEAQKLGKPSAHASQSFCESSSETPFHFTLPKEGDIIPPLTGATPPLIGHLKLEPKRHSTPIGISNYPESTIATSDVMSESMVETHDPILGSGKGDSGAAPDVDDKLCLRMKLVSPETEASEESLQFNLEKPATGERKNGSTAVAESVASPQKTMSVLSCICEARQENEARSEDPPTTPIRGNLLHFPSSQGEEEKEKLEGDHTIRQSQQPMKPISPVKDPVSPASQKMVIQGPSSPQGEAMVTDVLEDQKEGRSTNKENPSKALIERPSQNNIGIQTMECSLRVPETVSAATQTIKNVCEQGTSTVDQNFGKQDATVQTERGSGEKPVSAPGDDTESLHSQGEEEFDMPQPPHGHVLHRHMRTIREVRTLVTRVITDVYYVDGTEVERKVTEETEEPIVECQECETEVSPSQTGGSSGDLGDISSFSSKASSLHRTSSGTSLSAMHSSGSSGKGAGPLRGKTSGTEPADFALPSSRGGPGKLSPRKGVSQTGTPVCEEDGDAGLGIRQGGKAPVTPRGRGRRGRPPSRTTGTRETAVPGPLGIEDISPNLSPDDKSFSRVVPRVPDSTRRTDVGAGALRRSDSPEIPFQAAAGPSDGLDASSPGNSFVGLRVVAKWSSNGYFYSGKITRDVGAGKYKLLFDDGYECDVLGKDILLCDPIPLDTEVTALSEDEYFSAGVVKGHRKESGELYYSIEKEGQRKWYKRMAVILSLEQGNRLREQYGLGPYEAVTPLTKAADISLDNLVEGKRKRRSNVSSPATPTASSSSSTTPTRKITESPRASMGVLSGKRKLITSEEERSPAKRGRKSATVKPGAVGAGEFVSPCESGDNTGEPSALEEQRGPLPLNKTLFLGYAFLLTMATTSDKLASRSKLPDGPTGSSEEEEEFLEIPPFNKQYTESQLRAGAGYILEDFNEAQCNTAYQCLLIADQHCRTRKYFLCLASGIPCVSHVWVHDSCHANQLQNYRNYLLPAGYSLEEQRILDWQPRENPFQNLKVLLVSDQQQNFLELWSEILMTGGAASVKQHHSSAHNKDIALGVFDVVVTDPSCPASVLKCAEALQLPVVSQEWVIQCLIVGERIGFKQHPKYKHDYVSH
UniProt O14773: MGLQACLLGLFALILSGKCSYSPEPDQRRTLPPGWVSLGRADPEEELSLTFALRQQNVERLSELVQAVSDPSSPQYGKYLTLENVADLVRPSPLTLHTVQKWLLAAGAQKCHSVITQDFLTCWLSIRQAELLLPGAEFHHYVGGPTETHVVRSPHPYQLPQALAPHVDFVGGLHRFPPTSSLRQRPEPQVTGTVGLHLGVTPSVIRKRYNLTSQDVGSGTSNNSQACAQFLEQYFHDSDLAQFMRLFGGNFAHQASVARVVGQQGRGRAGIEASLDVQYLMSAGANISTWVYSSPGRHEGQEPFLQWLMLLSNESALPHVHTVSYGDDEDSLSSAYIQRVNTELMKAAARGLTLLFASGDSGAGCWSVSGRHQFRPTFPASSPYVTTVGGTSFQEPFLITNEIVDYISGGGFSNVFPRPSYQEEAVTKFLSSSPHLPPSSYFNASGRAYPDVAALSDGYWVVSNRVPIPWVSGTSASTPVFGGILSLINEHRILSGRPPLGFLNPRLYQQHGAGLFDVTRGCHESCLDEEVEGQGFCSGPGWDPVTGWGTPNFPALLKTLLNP
UniProt Q96HV5: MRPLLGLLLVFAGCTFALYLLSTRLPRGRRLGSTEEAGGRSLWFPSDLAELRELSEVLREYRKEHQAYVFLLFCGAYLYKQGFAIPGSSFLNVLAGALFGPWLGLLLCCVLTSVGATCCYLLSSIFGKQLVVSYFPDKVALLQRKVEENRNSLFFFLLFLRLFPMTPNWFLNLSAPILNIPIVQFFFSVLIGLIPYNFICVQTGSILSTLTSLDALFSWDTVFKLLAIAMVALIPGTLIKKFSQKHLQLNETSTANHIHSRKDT
UniProt O94886: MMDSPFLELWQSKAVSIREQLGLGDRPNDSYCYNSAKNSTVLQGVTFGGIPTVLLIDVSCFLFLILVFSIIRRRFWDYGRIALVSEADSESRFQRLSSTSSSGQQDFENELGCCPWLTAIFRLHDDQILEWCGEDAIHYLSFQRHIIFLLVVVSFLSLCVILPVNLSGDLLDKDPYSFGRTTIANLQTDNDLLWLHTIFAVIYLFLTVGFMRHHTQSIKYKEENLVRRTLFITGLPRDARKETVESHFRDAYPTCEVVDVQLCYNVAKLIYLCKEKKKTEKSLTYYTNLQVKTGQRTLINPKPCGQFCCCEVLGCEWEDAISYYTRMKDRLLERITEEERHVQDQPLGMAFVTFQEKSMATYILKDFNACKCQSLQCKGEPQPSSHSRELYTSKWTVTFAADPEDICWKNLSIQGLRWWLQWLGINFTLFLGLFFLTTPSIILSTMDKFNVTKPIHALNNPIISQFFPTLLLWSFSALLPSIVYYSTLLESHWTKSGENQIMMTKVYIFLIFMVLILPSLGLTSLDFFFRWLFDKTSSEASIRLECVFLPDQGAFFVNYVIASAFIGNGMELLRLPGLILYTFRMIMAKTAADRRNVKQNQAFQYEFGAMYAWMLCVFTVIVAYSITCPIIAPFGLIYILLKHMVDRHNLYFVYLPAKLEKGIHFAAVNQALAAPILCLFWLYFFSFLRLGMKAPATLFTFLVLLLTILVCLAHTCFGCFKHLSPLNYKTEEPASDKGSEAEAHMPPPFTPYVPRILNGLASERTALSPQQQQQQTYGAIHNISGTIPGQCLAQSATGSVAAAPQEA
UniProt Q13595: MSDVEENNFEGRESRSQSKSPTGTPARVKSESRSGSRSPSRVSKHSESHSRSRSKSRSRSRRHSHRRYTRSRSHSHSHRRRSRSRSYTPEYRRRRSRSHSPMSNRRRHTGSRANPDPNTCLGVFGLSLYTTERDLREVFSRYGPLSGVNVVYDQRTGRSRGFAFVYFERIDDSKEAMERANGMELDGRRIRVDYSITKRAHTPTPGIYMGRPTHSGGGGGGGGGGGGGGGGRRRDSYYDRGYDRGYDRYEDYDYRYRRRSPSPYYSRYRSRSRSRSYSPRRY
UniProt Q9BTX3: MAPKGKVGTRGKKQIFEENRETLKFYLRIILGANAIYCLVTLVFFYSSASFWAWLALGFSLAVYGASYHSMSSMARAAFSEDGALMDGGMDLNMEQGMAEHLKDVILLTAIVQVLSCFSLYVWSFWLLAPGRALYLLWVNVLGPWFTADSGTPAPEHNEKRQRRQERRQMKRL
UniProt Q9NQ34: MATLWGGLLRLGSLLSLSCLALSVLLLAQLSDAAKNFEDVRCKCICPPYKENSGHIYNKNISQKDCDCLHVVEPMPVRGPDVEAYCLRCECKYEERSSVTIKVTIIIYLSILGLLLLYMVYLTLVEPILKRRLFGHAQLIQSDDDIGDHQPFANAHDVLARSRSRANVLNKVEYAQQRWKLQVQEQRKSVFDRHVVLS
UniProt Q9H497: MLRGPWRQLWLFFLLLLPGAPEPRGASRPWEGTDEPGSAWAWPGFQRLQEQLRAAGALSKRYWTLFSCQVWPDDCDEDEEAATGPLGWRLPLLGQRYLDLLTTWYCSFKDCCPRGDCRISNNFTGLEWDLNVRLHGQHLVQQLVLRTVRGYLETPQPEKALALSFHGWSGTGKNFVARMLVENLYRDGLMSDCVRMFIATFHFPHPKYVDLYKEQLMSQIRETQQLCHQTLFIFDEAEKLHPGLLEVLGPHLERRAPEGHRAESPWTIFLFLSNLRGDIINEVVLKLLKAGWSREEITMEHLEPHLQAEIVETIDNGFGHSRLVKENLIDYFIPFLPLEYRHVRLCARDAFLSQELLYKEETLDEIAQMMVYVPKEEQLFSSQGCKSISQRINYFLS
UniProt Q9BTV4: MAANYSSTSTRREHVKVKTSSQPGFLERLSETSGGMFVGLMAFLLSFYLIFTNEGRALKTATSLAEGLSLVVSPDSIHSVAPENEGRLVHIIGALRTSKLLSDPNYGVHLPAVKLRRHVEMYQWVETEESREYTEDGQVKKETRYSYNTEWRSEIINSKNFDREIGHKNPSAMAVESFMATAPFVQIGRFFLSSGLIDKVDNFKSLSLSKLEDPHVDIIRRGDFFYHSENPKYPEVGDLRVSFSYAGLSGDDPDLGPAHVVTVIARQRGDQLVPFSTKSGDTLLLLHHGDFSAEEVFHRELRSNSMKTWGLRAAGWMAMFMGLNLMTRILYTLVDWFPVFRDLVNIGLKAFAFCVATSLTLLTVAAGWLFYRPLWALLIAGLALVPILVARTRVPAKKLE
UniProt P09493, whole entry, looked up: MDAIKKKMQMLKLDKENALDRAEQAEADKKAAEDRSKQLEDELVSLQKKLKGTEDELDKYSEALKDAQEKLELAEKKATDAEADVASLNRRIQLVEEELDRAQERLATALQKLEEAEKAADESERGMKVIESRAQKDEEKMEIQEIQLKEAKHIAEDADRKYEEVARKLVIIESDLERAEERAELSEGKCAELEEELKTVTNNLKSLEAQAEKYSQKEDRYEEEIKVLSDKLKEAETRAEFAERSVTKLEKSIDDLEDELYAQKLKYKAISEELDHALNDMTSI

Tests used:
Test in all cases: log2 fold change, soluble protein after heating vs DMSO (PISA); higher = thermal stabilisation; K562 lysate, 10 uM; active = over 0.2 and 3.5 SD of the protein, either way, in both replicates (recomputed)
[1] = compound: CS(=O)(=O)CCNCc1ccc(-c2ccc3ncnc(Nc4ccc(OCc5cccc(F)c5)c(Cl)c4)c3c2)o1 [lapatinib]
Procedure, shortened: (§1)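 K562 pellets were dounce-homogenised in PBS pH 7.4 containing 1 mM MgCl2, and the crude extract, at 1 mg/mL protein, was exposed to 10 μM compound for 30 min. Aliquots were heated for 3 min across 48°C-58°C, pooled, brought to 0.5% NP-40 at 4°C and spun at 21,000xg for 90 min, with the supernatant taken as soluble protein. TMTpro 16plex LC-MS/MS with equalised channel sums quantified that protein. Values are log-two fold changes in thermal stability relative to solvent controls, taken from duplicates.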

[2] = compound: CS(=O)(=O)N1CCN(Cc2cc3nc(-c4cccc5[nH]ncc45)nc(N4CCOCC4)c3s2)CC1 [pictilisib]
Procedure, shortened: as §1

[3] = compound: C[C@@H](Oc1cc(-c2cnn(C3CCNCC3)c2)cnc1N)c1c(Cl)ccc(F)c1Cl [crizotinib]
Procedure, shortened: as §1

[4] = compound: C[C@H](C1=CC=C(C=C1)C(=O)NC2=C3C=CNC3=NC=C2)N
Procedure, shortened: as §1

[5] = compound: C[C@H](Nc1ncnc2nc[nH]c12)c1cc2cccc(Cl)c2c(=O)n1-c1ccccc1 [duvelisib]
Procedure, shortened: as §1

[6] = compound: Cc1cc(Nc2cc(CN3CCOCC3)c3nc(C)c(Cc4ccc(Cl)cc4F)n3n2)n[nH]1 [gandotinib]
Procedure, shortened: as §1

[7] = compound: Cc1cc(Nc2cc(N3CCN(C)CC3)nc(Sc3ccc(NC(=O)C4CC4)cc3)n2)n[nH]1 [tozasertib]
Procedure, shortened: as §1

[8] = compound: Cc1ccc(-n2nc(C(C)(C)C)cc2NC(=O)Nc2ccc(OCCN3CCOCC3)c3ccccc23)cc1 [doramapimod]
Procedure, shortened: as §1

[9] = compound: Cc1ccc(NC(=O)c2ccc(CN3CC[C@H](N(C)C)C3)c(C(F)(F)F)c2)cc1Nc1nccc(-c2cncnc2)n1 [bafetinib]
Procedure, shortened: as §1

[10] = compound: Cc1cccc(CC(=O)N2CCc3c2ccc(-c2cn(C)c4ncnc(N)c24)c3F)n1
Procedure, shortened: as §1

[11] = compound: Cc1cn(-c2cc(NC(=O)c3ccc(C)c(Nc4nccc(-c5cccnc5)n4)c3)cc(C(F)(F)F)c2)cn1 [nilotinib]
Procedure, shortened: as §1

[12] = compound: Cc1nc(Nc2n[nH]c3c2CN(C(=O)N[C@H](CN(C)C)c2ccccc2)C3(C)C)c2sccc2n1
Procedure, shortened: as §1

[13] = compound: Cc1nc(Nc2ncc(C(=O)Nc3c(C)cccc3Cl)s2)cc(N2CCN(CCO)CC2)n1 [dasatinib]
Procedure, shortened: as §1

[14] = compound: Cc1ncc(-c2ccnc(Nc3ccc(S(C)(=O)=O)cc3)n2)n1C(C)C
Procedure, shortened: as §1

[15] = compound: Cn1cc(-c2ccc3c(c2)CCN3C(=O)Cc2cccc(C(F)(F)F)c2)c2c(N)ncnc21
Procedure, shortened: as §1

[16] = compound: Cn1cc(CNCC2CCN(c3ncc(C(=O)NO)cn3)CC2)c2ccccc21 [quisinostat]
Procedure, shortened: as §1

[17] = compound: Cn1cncc1[C@@](N)(c1ccc(Cl)cc1)c1ccc2c(c1)c(-c1cccc(Cl)c1)cc(=O)n2C [tipifarnib]
Procedure, shortened: as §1

[18] = compound: NC(=O)Nc1cc(-c2cccc(F)c2)sc1C(=O)N[C@H]1CCCNC1
Procedure, shortened: as §1

[19] = compound: NC(=O)c1cnc(N[C@@H]2CCCC[C@@H]2N)nc1Nc1cccc(-n2nccn2)c1
Procedure, shortened: as §1

[20] = compound: NC1(c2ccc(-c3nc4ccn5c(=O)[nH]nc5c4cc3-c3ccccc3)cc2)CCC1
Procedure, shortened: as §1

Target | log2 fold change [1] | log2 fold change [2] | log2 fold change [3] | log2 fold change [4] | log2 fold change [5] | log2 fold change [6] | log2 fold change [7] | log2 fold change [8] | log2 fold change [9] | log2 fold change [10] | log2 fold change [11] | log2 fold change [12] | log2 fold change [13] | log2 fold change [14] | log2 fold change [15] | log2 fold change [16] | log2 fold change [17] | log2 fold change [18] | log2 fold change [19] | log2 fold change [20]
TNPO2 (UniProt O14787) | inactive: -0.037 | inactive: -0.002 | inactive: 0.004 | inactive: 0.062 | inactive: 0 | inactive: -0.087 | inactive: -0.009 | inactive: -0.039 | inactive: -0.001 | inactive: 0 | inactive: -0.002 | inactive: 0.02 | inactive: -0.016 | inactive: -0.01 | inactive: -0.005 | inactive: -0.002 | inactive: 0.004 | inactive: -0.008 | inactive: -0.002 | inactive: -0.026
TNKS1BP1 (UniProt Q9C0C2) | inactive: -0.001 | inactive: 0.007 | inactive: 0.002 | inactive: -0.02 | inactive: -0.003 | inactive: 0.049 | inactive: 0.014 | inactive: -0.014 | inactive: -0.014 | inactive: 0.008 | inactive: 0.006 | inactive: 0.004 | inactive: 0.014 | inactive: 0.005 | inactive: -0.001 | inactive: -0.031 | inactive: -0.035 | inactive: 0.003 | inactive: 0.004 | inactive: 0.012
TP53BP1 isoform 2 (UniProt Q12888) | inactive: 0 | inactive: -0.003 | inactive: 0.013 | inactive: 0.002 | inactive: 0.009 | inactive: 0.002 | inactive: 0.021 | inactive: -0.016 | inactive: -0.018 | inactive: 0.011 | inactive: 0.01 | inactive: 0.013 | inactive: 0.025 | inactive: -0.005 | inactive: 0 | inactive: -0.011 | inactive: -0.006 | inactive: 0.011 | inactive: -0.01 | inactive: 0.016
TMLHE isoform 8 (UniProt Q9NVH6) | inactive: -0.028 | inactive: 0.044 | inactive: -0.03 | inactive: -0.098 | inactive: -0.015 | inactive: 0.018 | inactive: 0 | inactive: 0.031 | inactive: 0.026 | inactive: -0.039 | inactive: 0.015 | inactive: -0.066 | inactive: 0.035 | inactive: 0.004 | inactive: -0.058 | inactive: -0.098 | inactive: -0.024 | inactive: -0.017 | inactive: -0.057 | inactive: -0.001
TOM1L2 (UniProt Q6ZVM7) | inactive: 0.067 | inactive: -0.089 | inactive: 0.022 | inactive: 0.003 | inactive: -0.018 | inactive: 0.057 | inactive: 0.048 | inactive: 0.015 | inactive: -0.071 | inactive: 0.013 | inactive: -0.113 | inactive: -0.023 | inactive: 0.067 | inactive: 0.221 | inactive: 0.108 | inactive: -0.01 | inactive: 0.027 | inactive: 0.058 | inactive: 0.053 | inactive: -0.081
TPP1 (UniProt O14773) | inactive: -0.019 | inactive: 0.017 | inactive: -0.057 | inactive: -0.006 | inactive: 0.017 | inactive: 0.014 | inactive: -0.028 | inactive: -0.033 | inactive: -0.023 | inactive: 0.01 | inactive: -0.017 | inactive: 0.007 | inactive: -0.014 | inactive: -0.003 | inactive: 0.012 | inactive: -0.088 | inactive: -0.018 | inactive: 0.036 | inactive: 0.006 | inactive: 0.008
TMEM41A (UniProt Q96HV5) | inactive: 0.009 | inactive: 0.003 | inactive: 0.047 | inactive: -0.102 | inactive: -0.003 | inactive: 0.125 | inactive: 0.027 | inactive: 0.045 | inactive: 0.057 | inactive: 0.024 | inactive: 0.067 | inactive: -0.007 | inactive: 0.025 | inactive: -0.055 | inactive: 0.047 | inactive: 0.025 | inactive: -0.048 | inactive: -0.059 | inactive: -0.036 | inactive: 0.001
TMEM63A (UniProt O94886) | inactive: -0.009 | inactive: -0.013 | inactive: 0.072 | inactive: 0.095 | inactive: 0.022 | inactive: -0.012 | inactive: 0.041 | inactive: 0.02 | inactive: 0.037 | inactive: -0.136 | inactive: 0.092 | inactive: 0.023 | inactive: 0.008 | inactive: -0.027 | inactive: 0.048 | inactive: 0.078 | inactive: -0.106 | inactive: 0 | inactive: 0.044 | inactive: 0.006
TRA2A (UniProt Q13595) | inactive: -0.012 | inactive: 0.032 | inactive: -0.184 | inactive: -0.048 | inactive: -0.048 | inactive: -0.011 | inactive: 0.015 | inactive: 0.086 | inactive: 0.042 | inactive: 0.053 | inactive: 0.098 | inactive: -0.041 | inactive: -0.08 | inactive: -0.124 | inactive: 0.077 | inactive: -0.213 | inactive: -0.114 | inactive: -0.206 | inactive: 0 | inactive: -0.062
TMEM208 (UniProt Q9BTX3) | inactive: 0 | inactive: 0.007 | inactive: -0.102 | inactive: -0.348 | inactive: -0.135 | inactive: 0.136 | inactive: 0.041 | inactive: -0.006 | inactive: -0.033 | inactive: 0.239 | inactive: -0.102 | inactive: 0.061 | inactive: -0.017 | inactive: -0.111 | inactive: 0.05 | inactive: -0.165 | inactive: -0.027 | inactive: 0.065 | inactive: -0.013 | inactive: 0.098
TMTC3 (UniProt Q6ZXV5) | inactive: -0.04 | inactive: -0.068 | inactive: -0.003 | inactive: 0.008 | inactive: -0.044 | inactive: -0.064 | inactive: -0.003 | inactive: 0.062 | inactive: 0 | inactive: -0.012 | inactive: -0.044 | inactive: 0.014 | inactive: -0.012 | inactive: 0.036 | inactive: 0.056 | inactive: 0.081 | inactive: 0.023 | inactive: 0.004 | inactive: 0.019 | inactive: -0.002
TMEM9B (UniProt Q9NQ34) | inactive: -0.035 | inactive: -0.045 | inactive: -0.148 | inactive: 0.074 | inactive: 0.116 | inactive: -0.098 | inactive: 0.03 | inactive: 0.107 | inactive: 0.004 | inactive: -0.082 | inactive: 0.069 | inactive: -0.119 | inactive: -0.034 | inactive: -0.027 | inactive: 0.095 | inactive: -0.007 | inactive: 0.012 | inactive: -0.015 | inactive: -0.028 | inactive: 0.097
TOR3A (UniProt Q9H497) | active: -0.43 | inactive: -0.077 | inactive: 0.023 | inactive: -0.078 | inactive: 0.012 | inactive: 0.012 | inactive: -0.047 | inactive: -0.024 | inactive: 0.046 | inactive: 0.048 | inactive: 0.042 | inactive: -0.037 | inactive: 0.022 | inactive: -0.043 | inactive: 0.012 | inactive: 0.019 | inactive: -0.061 | inactive: 0.054 | inactive: 0.041 | inactive: -0.064
TMEM245 (UniProt Q9H330) | inactive: -0.011 | inactive: -0.006 | inactive: -0.018 | inactive: -0.059 | inactive: -0.032 | inactive: 0.018 | inactive: 0.047 | inactive: -0.033 | inactive: -0.008 | inactive: 0.03 | inactive: 0.031 | inactive: 0.098 | inactive: -0.037 | inactive: 0.052 | inactive: 0.038 | inactive: 0.046 | inactive: -0.035 | inactive: 0.005 | inactive: 0.05 | inactive: -0.009
TMEM43 (UniProt Q9BTV4) | inactive: -0.04 | inactive: 0.002 | inactive: -0.043 | inactive: -0.06 | inactive: -0.009 | inactive: 0.083 | inactive: 0.028 | inactive: 0.035 | inactive: -0.039 | inactive: 0.072 | inactive: -0.002 | inactive: -0.001 | inactive: 0.037 | inactive: 0.013 | inactive: 0.002 | inactive: -0.062 | inactive: -0.059 | inactive: -0.009 | inactive: 0.009 | inactive: -0.033
TPM1 isoform 4 (UniProt P09493) | inactive: 0.032 | inactive: -0.051 | inactive: 0.001 | inactive: 0.061 | inactive: -0.029 | inactive: -0.142 | inactive: 0.013 | inactive: 0.012 | inactive: 0.011 | inactive: -0.142 | inactive: 0.02 | inactive: 0 | inactive: 0.004 | inactive: -0.031 | inactive: 0.004 | inactive: 0.023 | inactive: -0.008 | inactive: -0.016 | inactive: -0.018 | inactive: -0.019

Reprinted from the results shown for reference:
Target | log2 fold change [1] | log2 fold change [2] | log2 fold change [3] | log2 fold change [4] | log2 fold change [5] | log2 fold change [6] | log2 fold change [7] | log2 fold change [8] | log2 fold change [9] | log2 fold change [10] | log2 fold change [11] | log2 fold change [12] | log2 fold change [13] | log2 fold change [14] | log2 fold change [15] | log2 fold change [16] | log2 fold change [17] | log2 fold change [18] | log2 fold change [19] | log2 fold change [20]
TMEM208 (UniProt Q9BTX3) | inactive: 0 | inactive: 0.007 | inactive: -0.102 | inactive: -0.348 | inactive: -0.135 | inactive: 0.136 | inactive: 0.041 | inactive: -0.006 | inactive: -0.033 | inactive: 0.239 | inactive: -0.102 | inactive: 0.061 | inactive: -0.017 | inactive: -0.111 | inactive: 0.05 | inactive: -0.165 | inactive: -0.027 | inactive: 0.065 | inactive: -0.013 | inactive: 0.098
TMTC3 (UniProt Q6ZXV5) | inactive: -0.04 | inactive: -0.068 | inactive: -0.003 | inactive: 0.008 | inactive: -0.044 | inactive: -0.064 | inactive: -0.003 | inactive: 0.062 | inactive: 0 | inactive: -0.012 | inactive: -0.044 | inactive: 0.014 | inactive: -0.012 | inactive: 0.036 | inactive: 0.056 | inactive: 0.081 | inactive: 0.023 | inactive: 0.004 | inactive: 0.019 | inactive: -0.002
TMEM9B (UniProt Q9NQ34) | inactive: -0.035 | inactive: -0.045 | inactive: -0.148 | inactive: 0.074 | inactive: 0.116 | inactive: -0.098 | inactive: 0.03 | inactive: 0.107 | inactive: 0.004 | inactive: -0.082 | inactive: 0.069 | inactive: -0.119 | inactive: -0.034 | inactive: -0.027 | inactive: 0.095 | inactive: -0.007 | inactive: 0.012 | inactive: -0.015 | inactive: -0.028 | inactive: 0.097
